# From patent publication US6767889B1, “Inhibition of angiogenesis by high molecular weight kininogen and peptide analogs thereof” (Temple University of the Commonwealth System of Higher …, priority 1998, dated 2004)
# For at least one compound, name, drawing or mass did not settle the structure. No end group written: not given here.
# Test system: human umbilical vein endothelial cells (HUVEC)
# Settings: bFGF-stimulated; FIG. 2
sequence,measurement,value
"RPPGFSPFR [bradykinin, reference compound]",effect on endothelial cell proliferation (in words),did not inhibit proliferation
